{"source": "patent US20230365542A1", "about": "“Selective Agonists of 5-HT2A Receptor and Methods of Use” (Yale University, priority 2020, published 2023)", "type_in_all_cases": "in vivo", "key": {"[1]": {"test_system": "C57BL/6J mice", "test": "Head twitch response (HTR) in mice", "conditions": "first 30 min after injection (i.p.), 1 mg/kg", "procedure": "(§1) Open field: this apparatus has been described in the literature (Acta Crystallographica Section D, 2010, 66:486-501). Mice were placed into the open field for 30 min, injected with vehicle, (+)-LSD-(+)-tartrate (NIDA Drug Supply Program, Bethesda, MID), 38, or 33 (i.p.), and returned immediately to the open field for 30 min. Locomotion was monitored using Fusion Integra software (Omnitech, Columbus, OH).\nHead twitch response: HTRs were filmed in the open field and were scored following drug administration for 30 min as described in the literature (Acta Crystallographica Section D, 2019, 75:861-877).\n(§2) Statistics: Statistical analyses were performed with IBM SPSS Statistics 27 programs (IBM, Chicago, IL). The data are presented as means and standard errors of the mean. No sex effects were detected. One- or two-way ANOVA or repeated measures ANOVA (RMANOVA) were used, followed by Bonferroni corrected post-hoc analyses. A p<0.05 was considered significant. All behavioral results were plotted using GraphPad Prism."}, "[2]": {"test_system": "wild-type (WT) and vesicular monoamine transporter 2 (VMAT2) heterozygous (HET) mice", "test": "Tail suspension test (immobility time) in wild-type and VMAT2 heterozygous mice", "conditions": "30 min after administration, compared to vehicle"}, "[3]": {"test_system": "C57BL/6J mice", "test": "Open field locomotion in mice", "conditions": "i.p., 1 mg/kg", "procedure": "as §1, §2"}}, "note": "“Also recorded” adds a separate entry of the source. At least one structure is not confirmed: it was looked up by name or label, or the drawing left a doubt.", "data": [{"smiles": "C[C@@H]1C=C(c2c[nH]c3ncccc23)CNC1", "note": "[compound 38, (R)-3-(5-methyl-1,2,5,6-tetrahydropyridin-3-yl)-1H-pyrrolo[2,3-b]pyridine]", "values": [{"measurement": "head twitch responses (HTRs)", "setting": "[1]", "result": "neither 38 nor 33 induced substantial HTRs; also recorded: not different from each other"}, {"measurement": "immobility time during the tail suspension test", "setting": "[2]; VMAT2 HET mice, 0.5 mg/kg i.p., 0.5 mg/kg", "result": "restored wild-type levels of mobility; also recorded: reduced immobility time significantly"}, {"measurement": "immobility time during the tail suspension test", "setting": "[2]; VMAT2 HET mice, 1 mg/kg i.p.", "result": "reduced immobility time significantly"}, {"measurement": "immobility time during the tail suspension test", "setting": "[2]; WT mice, 0.5 mg/kg i.p.", "result": "no effects"}, {"measurement": "immobility time during the tail suspension test", "setting": "[2]; WT mice, 1 mg/kg i.p.", "result": "no effects"}, {"measurement": "distance travelled in the open field, locomotion post injection (31-60 min)", "setting": "[3]", "result": "do not enhance locomotion; also recorded: not different from one another"}]}]}
